From PMC3628100

Key:
[1] = biological target: T1, SREBP1 (sterol regulatory element binding protein 1), endogenous in rat cortical neurons (rat (endogenous in primary cortical neurons)) (UniProt P56720); assay: co-IP; Supporting Information Fig 7; cells and precipitating antibody not given
T1 sequence: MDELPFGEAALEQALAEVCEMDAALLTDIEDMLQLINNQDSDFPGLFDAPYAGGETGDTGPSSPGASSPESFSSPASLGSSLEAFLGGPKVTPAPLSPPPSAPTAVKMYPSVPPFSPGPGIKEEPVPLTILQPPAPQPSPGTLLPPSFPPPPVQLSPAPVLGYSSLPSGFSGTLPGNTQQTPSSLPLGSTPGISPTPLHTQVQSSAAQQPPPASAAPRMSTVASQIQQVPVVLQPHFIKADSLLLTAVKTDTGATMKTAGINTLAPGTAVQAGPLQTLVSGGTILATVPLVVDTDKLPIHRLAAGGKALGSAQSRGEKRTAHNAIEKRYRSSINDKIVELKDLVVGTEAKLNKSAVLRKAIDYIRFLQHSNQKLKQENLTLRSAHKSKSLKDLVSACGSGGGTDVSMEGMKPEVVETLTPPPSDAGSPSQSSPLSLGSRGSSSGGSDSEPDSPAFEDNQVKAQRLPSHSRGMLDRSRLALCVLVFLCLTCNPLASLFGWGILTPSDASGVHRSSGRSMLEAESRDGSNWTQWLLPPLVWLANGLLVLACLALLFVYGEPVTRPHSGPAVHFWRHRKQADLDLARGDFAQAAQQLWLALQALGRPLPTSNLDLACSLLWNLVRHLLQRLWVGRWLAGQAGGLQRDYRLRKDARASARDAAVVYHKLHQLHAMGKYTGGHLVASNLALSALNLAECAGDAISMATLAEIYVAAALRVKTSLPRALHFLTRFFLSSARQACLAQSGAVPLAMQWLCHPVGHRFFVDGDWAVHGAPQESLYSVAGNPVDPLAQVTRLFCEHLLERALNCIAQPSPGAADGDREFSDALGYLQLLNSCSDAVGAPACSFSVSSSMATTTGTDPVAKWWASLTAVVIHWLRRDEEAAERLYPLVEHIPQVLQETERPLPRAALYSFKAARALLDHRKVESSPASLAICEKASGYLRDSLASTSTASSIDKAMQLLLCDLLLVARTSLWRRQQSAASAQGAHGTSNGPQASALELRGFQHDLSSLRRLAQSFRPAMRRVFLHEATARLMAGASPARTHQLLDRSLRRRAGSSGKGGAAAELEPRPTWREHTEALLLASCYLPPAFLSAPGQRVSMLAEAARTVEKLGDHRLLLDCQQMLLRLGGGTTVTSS

[2] = biological target: T1, SREBP1 (sterol regulatory element binding protein 1), endogenous in rat cortical neurons (rat (endogenous in primary cortical neurons)); assay: co-IP; lysates of primary rat cortical neurons (control or virus-infected), 500 µg protein, precipitated with 2 µg anti-N-terminus SREBP1 antibody H-160 overnight at 4°C, protein A-sepharose; 25 mM Tris pH 6.8, 0.5% Triton X-100, 0.5% Nonidet P-40; Western blot

| binding [1] | binding [2] | Substance |
| --- | --- | --- |
| binds | – | APLP1 (APP-like protein 1) |
| – | binds | C99, the β-cleaved C-terminal fragment of hAPP fused to the APP signal peptide sequence (human) (domain or fragment) |
| – | binds | human APP695 without its C-terminal region (APPΔC) (domain or fragment) |

Results are given in words; binding and its absence hold for the method and conditions named. Binding seen in cells or lysates may run through a third protein. A result given as binding can be weak or reduced; the word gives no strength.
